Laboratory results: PMC5244668
Results are given in words; binding and its absence hold for the method and conditions named.

The chains behind the UniProt entries cited, without tags or fusion partners. Residues count along the entry.
UniProt P08575, residues 599-1306: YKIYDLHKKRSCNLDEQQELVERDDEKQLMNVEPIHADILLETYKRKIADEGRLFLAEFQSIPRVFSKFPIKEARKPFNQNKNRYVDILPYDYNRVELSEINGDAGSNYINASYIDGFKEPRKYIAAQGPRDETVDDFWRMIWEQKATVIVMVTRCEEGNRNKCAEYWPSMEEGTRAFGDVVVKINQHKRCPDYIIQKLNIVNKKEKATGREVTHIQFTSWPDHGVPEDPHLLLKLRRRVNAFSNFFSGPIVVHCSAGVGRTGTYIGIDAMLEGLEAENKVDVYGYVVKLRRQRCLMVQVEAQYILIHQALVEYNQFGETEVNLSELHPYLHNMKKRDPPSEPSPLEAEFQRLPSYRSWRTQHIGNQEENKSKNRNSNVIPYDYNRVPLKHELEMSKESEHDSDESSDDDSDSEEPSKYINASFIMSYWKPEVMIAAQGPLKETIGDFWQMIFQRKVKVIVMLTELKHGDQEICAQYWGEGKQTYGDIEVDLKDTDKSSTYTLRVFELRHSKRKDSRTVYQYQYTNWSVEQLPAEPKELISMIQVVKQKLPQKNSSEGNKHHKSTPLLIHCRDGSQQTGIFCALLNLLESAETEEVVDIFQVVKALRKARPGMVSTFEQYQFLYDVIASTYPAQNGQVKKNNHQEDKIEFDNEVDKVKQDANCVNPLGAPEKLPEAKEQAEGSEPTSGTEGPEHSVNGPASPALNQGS

Molecular target: T1, protein associated with Toll‐like receptor 4 (PRAT4A), as used in the Biacore binding studies (UniProt Q9BT09)
T1 sequence: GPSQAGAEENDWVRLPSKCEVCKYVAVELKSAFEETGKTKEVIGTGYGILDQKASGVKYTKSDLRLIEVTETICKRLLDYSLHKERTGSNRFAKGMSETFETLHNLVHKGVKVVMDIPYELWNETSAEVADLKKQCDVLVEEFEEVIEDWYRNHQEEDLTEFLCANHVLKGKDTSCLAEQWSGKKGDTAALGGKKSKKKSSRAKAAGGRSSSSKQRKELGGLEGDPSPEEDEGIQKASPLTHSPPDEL
Test: SPR; Biacore system; who was immobilised and the conditions not given; told only in the discussion; both purified

“soluble cytoplasmic tail of CD45 (from UniProt P08575 599-1306) (domain or fragment)” was tested, and the binding was “no binding”.
